Test results as given in the supplement of paper PMC8551327.
Some of the results follow. Cut-off read from the data, not from the text of the source: active = 1.25 or more and inactive = the rest. Many values rest on one well or one pass, so single values are uncertain.

system: Kcc2-LUC knock-in mouse primary cortical neurons (Kcc2 promoter reporter); assay: Kcc2 promoter-driven luciferase activity relative to vehicle control (fold of vehicle (ratio)); higher = stronger Kcc2 promoter activation (Kcc2 expression enhancer); settings: 100 nM; 48 h

Kcc2 promoter-driven luciferase activity, inactive:
C[CH2][Ge]([CH2]C)([CH2]C)[O]C(=O)CCC(=O)[O][Ge]([CH2]C)([CH2]C)[CH2]C [Bis(Triethylgermyl) Butanedioate] 0.98, CC[C@H](C)C(=O)O[C@H]1CCC=C2C=C[C@H](C)[C@H](CC[C@@H]3C[C@@H](O)CC(=O)O3)[C@H]21 [Mevastatin (Compactin)] 1, CC1(C)CCCC2(C)C3=C(CCC12)C(=O)OC3 (stereo not given) [Confertifoline] 1.24, CCCCC[C@@H](O)[C@H]1C(=O)O[C@H](C)[C@@H](O)/C=C/C=C/C=C/C=C/C=C(\C)[C@@H](O)C[C@H](O)C[C@H](O)C[C@H](O)C[C@H](O)C[C@H](O)C[C@@H]1O [Filipin] 0.938, O=c1[nH]c(=O)n(C2CCCO2)cc1F (stereo not given) [Tegafur] 1.09
